Assay results as given in paper PMC9491610.
Results are given in words; binding and its absence hold for the method and conditions named. In cells and extracts the contact can be indirect. Some entries that bind do so weakly or less than the wild type. For part of these data: Tags and fused reporters may be left off the sequences shown.

Experiments:
Experiment in all cases: co-IP; Stu2-HA precipitated with anti-HA magnetic beads from 90 mg cryo-milled yeast extract in 1x PBS pH 7.4 with 0.1% Tween; precipitate blotted with anti γ-tubulin (anti-Tub4)
[1] = target: T1, Stu2-K252Q-3xHA (S. cerevisiae) (UniProt P46675)
T1 sequence: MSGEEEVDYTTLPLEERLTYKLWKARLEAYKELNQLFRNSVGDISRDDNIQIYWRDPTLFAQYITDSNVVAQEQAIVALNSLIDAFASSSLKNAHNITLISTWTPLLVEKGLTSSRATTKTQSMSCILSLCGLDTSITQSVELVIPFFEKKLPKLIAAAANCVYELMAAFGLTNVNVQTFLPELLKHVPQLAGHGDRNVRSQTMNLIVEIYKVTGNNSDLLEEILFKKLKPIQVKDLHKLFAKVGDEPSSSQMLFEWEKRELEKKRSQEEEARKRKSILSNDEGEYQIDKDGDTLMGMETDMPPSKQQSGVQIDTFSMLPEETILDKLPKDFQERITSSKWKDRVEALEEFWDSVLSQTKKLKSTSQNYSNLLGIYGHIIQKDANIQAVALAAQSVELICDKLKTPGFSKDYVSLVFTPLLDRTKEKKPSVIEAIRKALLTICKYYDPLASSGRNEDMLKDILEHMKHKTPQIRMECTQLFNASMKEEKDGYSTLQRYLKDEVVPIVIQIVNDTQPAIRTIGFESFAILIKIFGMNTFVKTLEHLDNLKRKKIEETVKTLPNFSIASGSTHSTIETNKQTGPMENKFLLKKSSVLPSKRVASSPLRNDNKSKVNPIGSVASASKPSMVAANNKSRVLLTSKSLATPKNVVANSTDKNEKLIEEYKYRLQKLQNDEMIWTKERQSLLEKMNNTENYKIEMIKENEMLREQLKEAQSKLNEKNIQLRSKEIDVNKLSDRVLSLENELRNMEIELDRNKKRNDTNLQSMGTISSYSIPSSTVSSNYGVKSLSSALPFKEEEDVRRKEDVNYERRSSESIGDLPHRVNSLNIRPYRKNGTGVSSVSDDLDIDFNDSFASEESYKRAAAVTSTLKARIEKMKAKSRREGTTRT

[2] = target: T2, Stu2-K252,469Q-3xHA (S. cerevisiae) (UniProt P46675)
T2 sequence: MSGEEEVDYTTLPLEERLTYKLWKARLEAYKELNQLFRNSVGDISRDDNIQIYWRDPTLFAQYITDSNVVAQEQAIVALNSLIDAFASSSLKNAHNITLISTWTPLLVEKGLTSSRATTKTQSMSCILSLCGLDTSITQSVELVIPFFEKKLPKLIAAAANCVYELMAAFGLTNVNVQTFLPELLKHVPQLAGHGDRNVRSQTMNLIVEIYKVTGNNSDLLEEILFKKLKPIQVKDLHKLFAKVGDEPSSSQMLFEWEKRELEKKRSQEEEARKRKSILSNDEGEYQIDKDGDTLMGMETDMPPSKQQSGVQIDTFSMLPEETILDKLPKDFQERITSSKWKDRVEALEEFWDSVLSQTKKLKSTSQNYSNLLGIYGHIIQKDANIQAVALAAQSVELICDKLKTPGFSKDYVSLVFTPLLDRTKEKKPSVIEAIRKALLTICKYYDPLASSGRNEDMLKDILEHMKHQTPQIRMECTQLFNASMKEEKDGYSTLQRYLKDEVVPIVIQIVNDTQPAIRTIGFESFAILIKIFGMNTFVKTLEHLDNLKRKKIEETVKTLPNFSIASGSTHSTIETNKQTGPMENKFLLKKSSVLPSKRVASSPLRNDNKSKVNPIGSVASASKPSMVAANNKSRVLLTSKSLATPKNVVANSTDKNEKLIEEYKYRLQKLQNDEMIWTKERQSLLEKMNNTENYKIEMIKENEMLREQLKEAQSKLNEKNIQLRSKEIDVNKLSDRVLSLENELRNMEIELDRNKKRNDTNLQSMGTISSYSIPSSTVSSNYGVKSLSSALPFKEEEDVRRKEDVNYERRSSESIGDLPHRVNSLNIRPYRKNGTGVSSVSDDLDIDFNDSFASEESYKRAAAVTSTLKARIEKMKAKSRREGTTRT

[3] = target: T3, Stu2-HA (wild-type Stu2, 3xHA tagged) (S. cerevisiae) (UniProt P46675)
T3 sequence: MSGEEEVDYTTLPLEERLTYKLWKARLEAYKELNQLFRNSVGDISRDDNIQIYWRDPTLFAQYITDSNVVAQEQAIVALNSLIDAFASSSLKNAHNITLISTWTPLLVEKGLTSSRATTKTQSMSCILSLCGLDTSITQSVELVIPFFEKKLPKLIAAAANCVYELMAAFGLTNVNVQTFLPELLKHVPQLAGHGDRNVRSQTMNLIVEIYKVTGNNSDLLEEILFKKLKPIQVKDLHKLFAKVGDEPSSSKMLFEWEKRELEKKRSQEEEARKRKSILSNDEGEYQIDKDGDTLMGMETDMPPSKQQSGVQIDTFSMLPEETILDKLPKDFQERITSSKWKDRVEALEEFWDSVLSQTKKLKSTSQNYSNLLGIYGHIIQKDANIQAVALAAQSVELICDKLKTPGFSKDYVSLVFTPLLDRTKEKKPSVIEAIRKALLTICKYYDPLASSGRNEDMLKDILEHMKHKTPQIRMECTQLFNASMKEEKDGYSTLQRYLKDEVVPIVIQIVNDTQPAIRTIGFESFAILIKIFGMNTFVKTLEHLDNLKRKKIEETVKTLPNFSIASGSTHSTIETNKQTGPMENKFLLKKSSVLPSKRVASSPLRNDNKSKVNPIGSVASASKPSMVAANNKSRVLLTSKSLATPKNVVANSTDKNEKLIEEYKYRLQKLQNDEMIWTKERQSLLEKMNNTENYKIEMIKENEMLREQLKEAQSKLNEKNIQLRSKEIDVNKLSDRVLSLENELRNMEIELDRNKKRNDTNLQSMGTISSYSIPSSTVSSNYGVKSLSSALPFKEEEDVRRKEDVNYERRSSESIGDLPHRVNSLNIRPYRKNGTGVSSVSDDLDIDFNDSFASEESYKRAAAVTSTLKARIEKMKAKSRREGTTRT

Measured: binding

B1: γ-tubulin (Tub4) (protein, UniProt P53378 1-473)
chain: MGGEIITLQAGQCGNHVGKFLWSQLAKEHAIGTDGLSQLPDSSTERDDDTKPFFRENSRNKFTPRAIMMDSEPSVIADVENTFRGFFDPRNTWVASDGASAGNSWANGYDIGTRNQDDILNKIDKEIDSTDNFEGFQLLHSVAGGTGSGLGSNLLEALCDRYPKKILTTYSVFPARSSEVVVQSYNTILALRRLIEDSDATVVFDNASLLNISGKVFRNPNIDLQHTNQLISTIISSVTNSIRFPSYMYSSMSSIYSTLIPSPELHFLSPSFTPFTSDYIHDDIAHKGHSSYDVMLDLLDPSNSLVSTAMNNPTYFNVYNTIIGNVEPRQISRAMTKLQQRIKFPSWSSSAMHVNIGRRSPYLPLQPNENEVSGMMLSNMSTVVNVFENACNTFDKVFAKGAFLNNYNVGDLFQSMQNVQDEFAESREVVQSLMEDYVAAEQDSYLDDVLVDDENMVGELEEDLDADGDHKLV
binds: all assays above
